# Experimental data published in the supplement of paper PMC8728848.
# This is one part of the list.
# B1: GS13971A-bth-447-22-447 (Bacteroides thetaiotaomicron) (protein)
# chain: EDVDNERSKGMFSASQSGFSTIEVYDLGPLNKIDLSIAKAGLEDTGGTVTFSVEQSLLDSLNNADGTSYQLLPPECYTIENATYSVSPGGDRRVTGGSLVYDPHKIYNLCGFDELKYVLPLRVSSTGTPMNSDRTATLYGFIVKEAIVRLASTGGDFVVEGGTTTSPMNLDTEISFENEWDLTTSFATKGADYVDNYNSANSTYYIPLPSDFYTLPDVTIAKGKTTGGSAISLLGETLPPGNYLLPVSLGGLSGQGDASINIDKETVANYFVIKQGGPINRDHWTVTANTEEKTGEVSAAYPHNGQTISLIDGEINTFWHSKWQGGEVAPPYEIILDMGKENSVSQLGLIARQNALTSMNLEIYAGDDGETWNLIGKYFFDGSIKTEQMVPVKACDARWIRIYIPTLGSGSSVGHLAEIYVYGTDK
# How the values were obtained:
# Assay in all cases: glycan array binding signal (z-score within array); higher = stronger binding
# Conditions in all cases: glycan notation: IUPAC condensed, linker removed
# [1] = target: Fuc(a1-2)Gal(b1-4)GlcNAc(b1-3)Gal(b1-4)GlcNAc(b1-3)Gal(b1-4)GlcNAc
# How it was run: (§1)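 Glycan array data were curated from 3228 arrays in the Consortium for Functional Glycomics database and kept only where the protein sequence was available. Glycan names were converted to IUPAC-condensed notation, and columns mapping to the same glycan were averaged. The binding signal is a within-array Z-score, averaged across arrays of the same protein sequence at different concentrations or buffers and across linkers. Negative Z-scores can be read as non-binding.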
# [2] = target: Fuc(a1-2)Gal(b1-4)GlcNAc(b1-3)GalNAc
# How it was run: as §1
# [3] = target: Fuc(a1-2)Gal(b1-4)GlcNAc(b1-3)[Fuc(a1-2)Gal(b1-4)GlcNAc(b1-6)]GalNAc
# How it was run: as §1
# [4] = target: Fuc(a1-2)Gal(b1-4)GlcNAc(b1-3)[Fuc(a1-3)[Gal(b1-4)]GlcNAc(b1-6)]Gal(b1-4)Glc
# How it was run: as §1
# [5] = target: Fuc(a1-2)Gal(b1-4)GlcNAc(b1-6)GalNAc
# How it was run: as §1
# [6] = target: Fuc(a1-2)Gal(b1-4)GlcNAc6S
# How it was run: as §1
# [7] = target: Fuc(a1-2)Gal(b1-4)[Fuc(a1-3)]GlcNAc
# How it was run: as §1
# [8] = target: Fuc(a1-2)Gal(b1-4)[Fuc(a1-3)]GlcNAc(b1-2)Man(a1-3)[Fuc(a1-2)Gal(b1-4)[Fuc(a1-3)]GlcNAc(b1-2)Man(a1-6)]Man(b1-4)GlcNAc(b1-4)[Fuc(a1-6)]GlcNAc
# How it was run: as §1
# [9] = target: Fuc(a1-2)Gal(b1-4)[Fuc(a1-3)]GlcNAc(b1-2)[Fuc(a1-2)Gal(b1-4)[Fuc(a1-3)]GlcNAc(b1-4)]Man(a1-3)[Fuc(a1-2)Gal(b1-4)[Fuc(a1-3)]GlcNAc(b1-2)Man(a1-6)]Man(b1-4)GlcNAc(b1-4)GlcNAc
# How it was run: as §1
# [10] = target: Fuc(a1-2)Gal(b1-4)[Fuc(a1-3)]GlcNAc(b1-3)Gal(b1-4)[Fuc(a1-3)]GlcNAc
# How it was run: as §1
# [11] = target: Fuc(a1-2)Gal(b1-4)[Fuc(a1-3)]GlcNAc(b1-3)Gal(b1-4)[Fuc(a1-3)]GlcNAc(b1-3)Gal(b1-4)[Fuc(a1-3)]GlcNAc
# How it was run: as §1
# [12] = target: Fuc(a1-2)Gal(b1-4)[Fuc(a1-3)]GlcNAc(b1-3)GalNAc
# How it was run: as §1
# [13] = target: Fuc(a1-2)Gal(b1-4)[Fuc(a1-3)]GlcNAc(b1-3)[Neu5Ac(a2-6)Gal(b1-4)GlcNAc(b1-6)]Gal(b1-4)Glc
# How it was run: as §1
# [14] = target: Fuc(a1-2)Gal3S(b1-4)GlcNAc
# How it was run: as §1
# [15] = target: Fuc(a1-2)Gal6S(b1-3)GlcNAc
# How it was run: as §1
# [16] = target: Fuc(a1-2)Gal6S(b1-3)GlcNAc6S
# How it was run: as §1
# Fuc(a1-2)Gal6S(b1-4)Glc = target: Fuc(a1-2)Gal6S(b1-4)Glc
# How it was run: as §1
# [17] = target: Fuc(a1-2)Gal6S(b1-4)Glc6S
# How it was run: as §1
# Fuc(a1-2)[Gal(a1-3)]Gal = target: Fuc(a1-2)[Gal(a1-3)]Gal
# How it was run: as §1
# [18] = target: Fuc(a1-2)[Gal(a1-3)]Gal(b1-3)GalNAc
# How it was run: as §1
# [19] = target: Fuc(a1-2)[Gal(a1-3)]Gal(b1-3)GalNAc(b1-3)Gal(a1-4)Gal(b1-4)Glc
# How it was run: as §1
# [20] = target: Fuc(a1-2)[Gal(a1-3)]Gal(b1-3)GlcNAc
# How it was run: as §1
# [21] = target: Fuc(a1-2)[Gal(a1-3)]Gal(b1-3)GlcNAc(b1-2)Man(a1-3)[Fuc(a1-2)[Gal(a1-3)]Gal(b1-3)GlcNAc(b1-2)Man(a1-6)]Man(b1-4)GlcNAc(b1-4)GlcNAc
# How it was run: as §1
# [22] = target: Fuc(a1-2)[Gal(a1-3)]Gal(b1-3)GlcNAc(b1-2)Man(a1-3)[Fuc(a1-2)[Gal(a1-3)]Gal(b1-3)GlcNAc(b1-2)Man(a1-6)]Man(b1-4)GlcNAc(b1-4)[Fuc(a1-6)]GlcNAc
# How it was run: as §1
# [23] = target: Fuc(a1-2)[Gal(a1-3)]Gal(b1-3)GlcNAc(b1-3)GalNAc
# How it was run: as §1
# [24] = target: Fuc(a1-2)[Gal(a1-3)]Gal(b1-3)GlcNAc(b1-6)GalNAc
# How it was run: as §1
# [25] = target: Fuc(a1-2)[Gal(a1-3)]Gal(b1-4)Glc
# How it was run: as §1
# [26] = target: Fuc(a1-2)[Gal(a1-3)]Gal(b1-4)GlcNAc
# How it was run: as §1
# [27] = target: Fuc(a1-2)[Gal(a1-3)]Gal(b1-4)GlcNAc(b1-2)Man
# How it was run: as §1
# [28] = target: Fuc(a1-2)[Gal(a1-3)]Gal(b1-4)GlcNAc(b1-2)Man(a1-3)[Fuc(a1-2)[Gal(a1-3)]Gal(b1-4)GlcNAc(b1-2)Man(a1-6)]Man(b1-4)GlcNAc(b1-4)GlcNAc
# How it was run: as §1
# [29] = target: Fuc(a1-2)[Gal(a1-3)]Gal(b1-4)GlcNAc(b1-2)Man(a1-3)[Fuc(a1-2)[Gal(a1-3)]Gal(b1-4)GlcNAc(b1-2)Man(a1-6)]Man(b1-4)GlcNAc(b1-4)[Fuc(a1-6)]GlcNAc
# How it was run: as §1
# [30] = target: Fuc(a1-2)[Gal(a1-3)]Gal(b1-4)GlcNAc(b1-3)GalNAc
# How it was run: as §1
# [31] = target: Fuc(a1-2)[Gal(a1-3)]Gal(b1-4)GlcNAc(b1-3)[Fuc(a1-2)[Gal(a1-3)]Gal(b1-4)GlcNAc(b1-6)]GalNAc
# How it was run: as §1
# [32] = target: Fuc(a1-2)[Gal(a1-3)]Gal(b1-4)GlcNAc(b1-6)GalNAc
# How it was run: as §1
# [33] = target: Fuc(a1-2)[Gal(a1-3)]Gal(b1-4)[Fuc(a1-3)]Glc
# How it was run: as §1
# [34] = target: Fuc(a1-2)[Gal(a1-3)]Gal(b1-4)[Fuc(a1-3)]GlcNAc
# How it was run: as §1
# [35] = target: Fuc(a1-2)[Gal(a1-3)]Gal(b1-4)[Fuc(a1-3)]GlcNAc(b1-3)GalNAc
# How it was run: as §1
binder,measurement,setting,value
B1,glycan array binding signal (z-score),[1],-0.965
same,glycan array binding signal (z-score),[2],-0.957
same,glycan array binding signal (z-score),[3],-0.527
same,glycan array binding signal (z-score),[4],1.73
same,glycan array binding signal (z-score),[5],-0.021
same,glycan array binding signal (z-score),[6],-1.12
same,glycan array binding signal (z-score),[7],0.714
same,glycan array binding signal (z-score),[8],0.063
same,glycan array binding signal (z-score),[9],0.844
same,glycan array binding signal (z-score),[10],-0.632
same,glycan array binding signal (z-score),[11],-0.677
same,glycan array binding signal (z-score),[12],1.01
same,glycan array binding signal (z-score),[13],-0.385
same,glycan array binding signal (z-score),[14],-0.51
same,glycan array binding signal (z-score),[15],1.21
same,glycan array binding signal (z-score),[16],0.223
same,glycan array binding signal (z-score),Fuc(a1-2)Gal6S(b1-4)Glc,0.378
same,glycan array binding signal (z-score),[17],-0.753
same,glycan array binding signal (z-score),Fuc(a1-2)[Gal(a1-3)]Gal,0.385
same,glycan array binding signal (z-score),[18],0.434
same,glycan array binding signal (z-score),[19],1.39
same,glycan array binding signal (z-score),[20],0.813
same,glycan array binding signal (z-score),[21],-0.969
same,glycan array binding signal (z-score),[22],-0.385
same,glycan array binding signal (z-score),[23],-0.753
same,glycan array binding signal (z-score),[24],0.614
same,glycan array binding signal (z-score),[25],-0.156
same,glycan array binding signal (z-score),[26],-0.476
same,glycan array binding signal (z-score),[27],-0.936
same,glycan array binding signal (z-score),[28],0.029
same,glycan array binding signal (z-score),[29],-0.543
same,glycan array binding signal (z-score),[30],-0.978
same,glycan array binding signal (z-score),[31],0.521
same,glycan array binding signal (z-score),[32],0.648
same,glycan array binding signal (z-score),[33],0.283
same,glycan array binding signal (z-score),[34],-0.117
same,glycan array binding signal (z-score),[35],1.88

# 2 records picked at random from the list so far:
binder,measurement,setting,value
B1,glycan array binding signal (z-score),[12],1.01
same,glycan array binding signal (z-score),[34],-0.117
